This note sets out measurements from patent publication US12017917B2, “Composition, particulate materials and methods for making particulate materials” (THE UNIVERSITY OF QUEENSLAND, priority 2015, dated 2024).

The experiment relates to Escherichia coli (E. coli). The experiment is described as follows: In vitro antibacterial activity of VAN formulations (OD 600 nm). The experiment is classed as cell-based. To be noted: 18 h, read-out: minimum inhibitory concentration (MIC). The procedure: The use of nanoparticles as a delivery vehicle for antibiotics provides a promising strategy through prolonged drug circulation half-life, increased availability of drugs interacting with membrane molecules and promoted sustained drug release. VAN is an antibiotic useful for the treatment of a number of bacterial infections since it inhibits the cell wall synthesis in susceptible bacteria. […] The in vitro antibacterial activity of VAN, MHS200-VAN and RMHS200-VAN was evaluated by monitoring the optical density (OD) at 600 nm of a bacterial suspension. E. coli (1×10^6 CFU mL^−1) was incubated in Luria-Bertani (LB) medium in a 1.5 ml centrifuge tube at various concentrations of VAN for 18 h. […] This value reduced to 20 μg ml^−1 for RMHS200-VAN which is lower than the dosage used with VAN conjugated MCM-41 (200 μg ml^−1) in in-vitro E. coli culture at 18 h. In a separate experiment, MHS200-VAN, RMHS200-VAN and free VAN with the same VAN content of 25 μg ml^−1 were incubated with 1×10^6 CFU mL^−1 E. Coli in LB media and OD was measured as a function of time.

In brackets after ≈: the same amount, converted by molar mass.

Consider `CN[C@H](CC(C)C)C(=O)N[C@H]1C(=O)N[C@@H](CC(N)=O)C(=O)N[C@H]2C(=O)N[C@H]3C(=O)N[C@H](C(=O)N[C@H](C(=O)O)c4cc(O)cc(O)c4-c4cc3ccc4O)[C@H](O)c3ccc(c(Cl)c3)Oc3cc2cc(c3O[C@@H]2O[C@H](CO)[C@@H](O)[C@H](O)[C@H]2O[C@H]2C[C@](C)(N)[C@H](O)[C@H](C)O2)Oc2ccc(cc2Cl)[C@H]1O` [free VAN, vancomycin], for which the MIC stood at 25 µg/mL (≈ 17.3 µM).
